Measured values: PMC3282727
No constants are given. Whether binding was seen depends on the method and setting. Binding seen in cells or lysates may run through a third protein.

Chains of the proteins cited; added tags and fusions are not shown. Lines headed by an entry give the natural chain unless they say otherwise; changes in a name come on top. Residues count along the entry.
UniProt P29268, residues 26-348: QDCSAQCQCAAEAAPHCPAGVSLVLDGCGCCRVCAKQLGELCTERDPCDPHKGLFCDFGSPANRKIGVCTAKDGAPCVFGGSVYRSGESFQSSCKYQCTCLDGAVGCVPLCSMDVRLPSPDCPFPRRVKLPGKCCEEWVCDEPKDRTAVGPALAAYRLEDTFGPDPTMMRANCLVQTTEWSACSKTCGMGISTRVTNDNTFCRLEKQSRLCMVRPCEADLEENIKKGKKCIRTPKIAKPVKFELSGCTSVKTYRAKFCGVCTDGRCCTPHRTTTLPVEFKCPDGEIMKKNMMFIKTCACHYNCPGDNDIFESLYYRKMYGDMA
UniProt P31240: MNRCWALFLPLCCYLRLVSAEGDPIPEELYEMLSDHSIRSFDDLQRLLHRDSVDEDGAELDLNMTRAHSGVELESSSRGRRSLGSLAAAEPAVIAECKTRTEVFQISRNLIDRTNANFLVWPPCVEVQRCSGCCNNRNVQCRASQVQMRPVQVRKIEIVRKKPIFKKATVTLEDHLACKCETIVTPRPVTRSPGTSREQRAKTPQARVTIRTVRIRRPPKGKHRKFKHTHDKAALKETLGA

Molecular target: CCN2/Connective Tissue Growth Factor, HA-tagged (CCN2-HA) (UniProt P29268)
Experiment: co-IP; lysates of M-CCN2 cells (MOVAS with lentiviral CCN-HA), non-crosslinked or DSP-crosslinked, Triton X-soluble and -insoluble fractions; immunoprecipitated with anti-HA antibody; blots probed with anti-CCN2 and anti-PDGFB

binding: no binding
Substance: platelet-derived growth factor-B (PDGF-B) (from UniProt P31240) (ligand)
